This assay can be described thus: qHTS Assay for Lipid Storage Modulators in Drosophila S3 Cells.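 On cell number change: cells counted by Cell Tracker Red CMTPX staining in the red channel.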 As to conditions: BODIPY lipid droplet fluorescence, 18-24 h; for cell number change: measured here: cell count max response, cells fed with added oleic acid. In outline: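 Drosophila S3 cells got compounds at several concentrations plus oleic acid (400 uM solution). Laser-scanning cytometry with 488 nm excitation read lipid droplets at 500-530 nm and cells at 575-640 nm. Percent activity was relative to 20 uM Triacsin C.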
Background: qHTS replaces the single test concentration by a dilution series.

Where [1] appears, read: measured here: lipid fluorescence (Fed channel) AC50, cells fed with added oleic acid.
The mark [2] stands for this setting: measured here: cell number channel AC50, cells fed with added oleic acid.

Structures are written as SMILES. Some of the results follow. Shown are side measurements of this screen, not its main read-out; they come without a call. The list favours compounds with an active or inconclusive main result. The note in brackets gives the kind of curve behind each potency; many fits are weak.

Results on 59 molecules are retold here after PubChem BioAssay AID2685 (National Center for Advancing Translational Sciences (NCATS), 2010).

Broadly, the AC50 is the concentration giving half of the maximal activity seen. Low values mean greater potency, high ones weaker potency.

With `O=C(Nc1ccc(S(=O)(=O)Nc2ncccn2)cc1)C12CC3CC(CC(C3)C1)C2`, the cell number change was -2.79%. Also, under setting [1], the AC50 was 3.66 µM [falling, partial curve]. For the molecule `O=C(Nc1cccc(C(F)(F)F)c1)C1CCCN(c2ncccn2)C1` (stereo unspecified), the cell number change turned out to be 9.29%. Also, under setting [2], the AC50 is 0.366 µM [rising, partial curve, poor fit]. On to `O=C(/C=C/c1ccc(Cl)cc1)NCc1cccs1`, for which the cell number change worked out at 35.1%. Under setting [2], the AC50 was 20.6 µM [rising, single point]. Moreover, the AC50 under setting [1] was 18.4 µM [rising, single point]. In the case of `Cc1ccc(/C=N/NC(=S)N2CCOCC2)cc1`, the cell number change came to 14.2%. Also, the AC50 under setting [1] is 16.4 µM [rising, partial curve, poor fit].

Take `CN1C(C(=O)NCc2cccc(C(F)(F)F)c2)CC2Cn3c(nc4cc(Cl)c(Cl)cc43)C21` (stereo unspecified): the cell number change worked out at 10.8%. As for `Cc1cc(N)c(-n2cc3c(=O)n(C)c(=O)n(C)c3c2)cc1C`, the cell number change amounted to 13.6%. Further, the AC50 under setting [1] was 1.46 µM [rising, full curve]. As for `CCc1ccc(C2C(C#N)=C(N)Oc3cc(N)ccc32)cc1` (stereo unspecified), the AC50 under setting [1] was 29.1 µM [falling, single point]. For `CN(C)N1C(N)=C(C#N)C(c2ccccc2)C2=C1CC(C)(C)CC2=O` (stereo unspecified), the cell number change turned out to be 21.2%. In addition, the half-maximal activity concentration (AC50) under setting [1] is 0.184 µM [rising, full curve]. Take `Cc1ccccc1-n1c(SCC(=O)N2CCC(C(=O)O)CC2)nnc1-c1ccncc1`: the cell number change stood at 21%. With `CC(C)(C)N(Cc1ccccc1)C(=O)COC(=O)C1CCN(c2ccc(C(F)(F)F)cn2)CC1`, the cell number change was -21.6%. Turning to `O=C(O)c1ccc(Nc2ncc([N+](=O)[O-])cc2[N+](=O)[O-])cc1`, the cell number change was -50.6%. The AC50 under setting [2] is 6.51 µM [falling, single point]. The AC50 under setting [1] is 6.51 µM [falling, single point]. Regarding `CCOc1ccc(CN(C)C(=O)CNC(=O)Cc2cccc3ccccc23)cc1`, the cell number change was -6.05%. Turning to `COc1ccc(C(C[N+](=O)[O-])c2c(-c3ccccc3)cc3ccccn23)cc1` (stereo unspecified), the cell number change was -45.4%. For the same molecule, the AC50 under setting [2] was 0.0231 µM [falling, full curve, poor fit]. In addition, the AC50 under setting [1] is 0.82 µM [falling, full curve, poor fit]. On to `C=CCn1c(SCC(=O)Nc2ccc(C)cc2C)nnc1-c1cccnc1`, for which the cell number change was 5.73%. Under setting [1], the AC50 is 6.51 µM [rising, full curve, poor fit].

As to `CCCCN1CC(=O)N2[C@H]3c4cc(OC)ccc4OC[C@@H]3[C@H](C(=O)OCC)[C@]2(C)C1=O`, the cell number change was -8.7%. Further, the AC50 under setting [1] is 0.092 µM [rising, full curve, poor fit]. As to `O=C1N/C(=C/c2cccn2-c2ccccc2)C(=O)N1c1cccc(Cl)c1`, the cell number change was -30.8%. Besides, the AC50 under setting [2] is 23.1 µM [falling, partial curve].

Turning to `CCN(CC)Cc1c(C(=O)N/N=C/c2cccs2)nnn1-c1nonc1N`, the cell number change is -31.9%. Further, the AC50 under setting [2] is 29.1 µM [falling, single point]. `CC1=NN(c2ccccc2)C(=O)/C1=C\C=C\c1ccccc1`: the cell number change was -67%. In addition, the AC50 under setting [2] was 10.3 µM [falling, partial curve]. The AC50 under setting [1] was 8.2 µM [falling, partial curve]. For the molecule `N=c1n(Cc2ccc(Cl)cc2)c2ccccc2n1CC(O)c1ccco1` (stereo unspecified), the cell number change is -19.3%.

In the case of `CC(=O)O[C@H]1C(=O)[C@@]2(C)[C@H]([C@H](OC(=O)c3ccccc3)[C@]3(O)C[C@H](OC(=O)[C@H](O)[C@@H](NC(=O)c4ccccc4)c4ccccc4)C(C)=C1C3(C)C)[C@]1(OC(C)=O)CO[C@@H]1C[C@@H]2O`, the cell number change was -13.4%. In addition, under setting [1], the AC50 is 2.31 µM [falling, full curve, poor fit].

For the molecule `Cc1ccc2nc(NNC(=O)c3ccc4c(c3)OCCO4)sc2c1`, the AC50 under setting [1] is 18.4 µM [rising, partial curve, poor fit]. For `COc1ccc(C)cc1N(C(=O)COc1ccccc1)c1nc2ccccc2s1`, the cell number change was -1.21%. The AC50 under setting [1] was 0.13 µM [rising, full curve, poor fit]. With `CCNS(=O)(=O)c1ccc(CCC(=O)NCc2ccncc2)cc1`, the cell number change came to 1.1%. Under setting [1], the AC50 was 23.1 µM [rising, single point].

`O=C(OCn1ncc(Br)c(Br)c1=O)c1c(F)cccc1F`: the cell number change is -75.1%. For the same molecule, under setting [2], the AC50 was 29.1 µM [falling, single point]. For the same molecule, the AC50 under setting [1] was 6.51 µM [rising, single point]. On to `COc1cccc(OC)c1C(=O)Nc1cc(C)nn1-c1nc2ccccc2[nH]1`, for which the cell number change is 2.83%.

`COC(=O)C1=C(O)/C(=C\c2ccc(OCC(=O)Nc3ccc(OC)cc3)cc2)N=C1C`: the cell number change came to 4.48%. The AC50 under setting [1] was 5.8 µM [rising, single point]. For `Cc1ccsc1C(=O)N1CCCC(C(=O)c2cc(F)ccc2F)C1` (stereo unspecified), the cell number change is -11.1%. Moreover, the AC50 under setting [1] was 0.92 µM [falling, full curve, poor fit]. On to `CCOc1ncccc1C(=O)Nc1ccc(OC)c(S(=O)(=O)N2CCOCC2)c1`, for which the cell number change was -6.19%. In the case of `CCOc1cc(/C=C(/C#N)c2nc3ccccc3[nH]2)ccc1Oc1ccc([N+](=O)[O-])cn1`, the cell number change is 50.9%. Besides, the AC50 under setting [2] was 32.6 µM [rising, single point]. In addition, the AC50 under setting [1] is 0.116 µM [rising, full curve, poor fit].

Turning to `OCCN(CCO)c1ncnc2c1sc1nc(N3CCOCC3)c3c(c12)CCCC3`, the cell number change is -16.2%. For the same molecule, the AC50 under setting [1] was 16.4 µM [rising, partial curve]. As for `COc1ccccc1OCCC(=O)Nc1cccc(S(=O)(=O)N2CCOCC2)c1`, the cell number change was -8.4%. Consider `COc1ccccc1CNC(=O)C(C)NS(=O)(=O)c1ccccc1` (stereo unspecified), for which the cell number change is -38.9%. Also, the AC50 under setting [2] is 29.1 µM [falling, single point]. `Cc1ccc(-c2csc(NC(=O)C3CC=CCC3C(=O)O)c2C(=O)OC(C)C)cc1` (stereo unspecified): the cell number change was 0.712%. As to `O=S(=O)(c1ccc(NC(=S)N/N=C/c2c3ccccc3cc3ccccc23)cc1)N1CCOCC1`, the cell number change is 34.1%. The AC50 under setting [2] is 14.6 µM [rising, single point]. For `CC(C)C(=O)NC(c1ccco1)c1c(O)ccc2ccccc12` (stereo unspecified), the cell number change was 0.564%. Also, under setting [1], the AC50 was 1.3 µM [falling, full curve, poor fit]. As to `Cn1cnc2c(cnn2-c2ccccc2)c1=O`, the cell number change came to 32.2%. Under setting [2], the AC50 is 18.4 µM [rising, partial curve, poor fit]. Besides, the AC50 under setting [1] was 0.00461 µM [rising, full curve, poor fit]. Consider `CCn1c(=NC(=O)c2ccc(S(=O)(=O)N3CCOCC3)cc2)sc2cccc(OC)c21`, for which the AC50 under setting [1] was 29.1 µM [falling, partial curve]. Take `COc1ccc(S(=O)(=O)N2CCN(c3ccccc3OC)CC2)cc1`: the cell number change is 6.42%. The AC50 under setting [1] is 20.6 µM [falling, single point].

In the case of `O=C(/C=C/c1cccc([N+](=O)[O-])c1)N1CCN(c2ccccc2F)CC1`, the cell number change was found to be 2.16%. For the same molecule, the AC50 under setting [1] is 4.11 µM [rising, single point].

As to `CN(C)C(=O)c1ccc(NC(=O)c2ccc(-c3ccc(Cl)cc3)o2)cc1`, the cell number change was -12.7%. `O=S(=O)(NCC1CCCO1)c1ccc(S(=O)(=O)N2CCCC2)cc1` (stereo unspecified): the cell number change was 9.42%. For the same molecule, the half-maximal activity concentration (AC50) under setting [1] was 0.00411 µM [rising, full curve, poor fit]. With `O=C1C=C(c2ccc(Cl)nc2)C[C@@H](c2ccc3c(c2)OCO3)C1`, the AC50 runs as follows: under setting [2], 0.517 µM [falling, partial curve]; under setting [1], 1.84 µM [falling, partial curve, poor fit]. Take `COc1cccc(C2NC(=O)NC(C)=C2C(=O)Nc2ccccc2C)c1` (stereo unspecified): the cell number change is -12.7%. In addition, the half-maximal activity concentration (AC50) under setting [1] is 18.4 µM [rising, single point]. For the molecule `CN(C)S(=O)(=O)c1ccc(C(=O)NC(=O)CSc2ccccc2)cc1`, the cell number change came out at 76.8%. The AC50 under setting [2] was 29.1 µM [rising, single point]. Consider `COC(=O)[C@H]1CN(C(=O)c2ccccc2)C(=O)N1`, for which the cell number change was -12.6%. As for `CC(=O)Nc1ccccc1OCc1nnc(-c2ccccc2Cl)o1`, the cell number change was -0.794%. Moreover, the AC50 under setting [1] was 0.103 µM [rising, full curve, poor fit].

As for `COc1ccc2ccccc2c1CN1CCSCC1`, the AC50 was 0.184 µM [falling, full curve, poor fit] under setting [2] and 0.146 µM [falling, full curve, poor fit] under setting [1]. On to `NC(=O)CSc1cn(Cc2ccc(F)cc2)c2ccccc12`, for which the cell number change came out at 33.9%. In addition, the AC50 under setting [2] is 13 µM [rising, single point]. For the same molecule, under setting [1], the AC50 is 16.4 µM [rising, single point]. In the case of `Cc1cc(=O)oc2cc(OCC(=O)NCCN3CCOCC3)ccc12`, the cell number change is -1.18%. In addition, under setting [1], the AC50 was 6.51 µM [falling, single point]. With `CCCCNc1ncnc2c1cnn2Cc1ccc(Cl)cc1`, the cell number change was -0.704%. The concentration at half-maximal activity (AC50) under setting [2] is 0.146 µM [rising, full curve, poor fit]. For the same molecule, under setting [1], the AC50 is 20.6 µM [falling, partial curve]. With `OC(CN1CCCCC1)Cn1c(C(F)(F)F)nc2ccccc21` (stereo unspecified), the cell number change is -75.8%. With `O=C(NC1=NCCS1)C1CC2CCC1C2` (stereo unspecified), the cell number change came out at 43.7%. Also, under setting [2], the AC50 was 9.2 µM [rising, partial curve]. In addition, the AC50 under setting [1] is 29.1 µM [rising, partial curve, poor fit].

Regarding `CSc1nc2ccccc2n1CC(=O)Nc1c(C)cccc1C`, the cell number change was -26.9%.

On to `COc1ccc(OC)c(NC(=O)CCOc2cccc(C)c2)c1`, for which the cell number change is -1.67%. In addition, the AC50 under setting [1] was 0.206 µM [rising, full curve, poor fit]. Take `COc1ccc(NC(=O)/C=C/c2ccc(F)cc2)cn1`: the cell number change was -16.7%. The same measure, in the same setting: in the case of `Cn1c(-c2csc(-c3ccccc3)n2)n[nH]c1=S` it was 76.6%.

Take `COc1ccc(CCNC(=O)C(=O)NCC2OCCN2S(=O)(=O)c2ccc3c(c2)OCCO3)cc1OC` (stereo unspecified): the cell number change is -20.5%. For the same molecule, the AC50 under setting [1] is 0.58 µM [falling, single point]. Regarding `O=C(Oc1cccc2c(=O)[nH]ccc12)c1ccccc1`, the cell number change was -20.6%. Besides, under setting [1], the AC50 was 0.206 µM [falling, partial curve, poor fit]. With `COC(=O)c1cn(NC(=O)Cc2ccccc2OC)c(=O)c2ccccc12`, the cell number change was -47.7%. Besides, the AC50 under setting [2] was 25.9 µM [falling, partial curve, poor fit]. Also, the AC50 under setting [1] is 0.461 µM [falling, full curve, poor fit].
